Source: the supplement of paper PMC10849652
This is one part of the list.

Sequences of proteins named here, by UniProt entry; tags and fusion partners are left off. A change or cut given only in a name is not applied to a line headed by its entry.
UniProt Q9NSY1, whole entry, looked up: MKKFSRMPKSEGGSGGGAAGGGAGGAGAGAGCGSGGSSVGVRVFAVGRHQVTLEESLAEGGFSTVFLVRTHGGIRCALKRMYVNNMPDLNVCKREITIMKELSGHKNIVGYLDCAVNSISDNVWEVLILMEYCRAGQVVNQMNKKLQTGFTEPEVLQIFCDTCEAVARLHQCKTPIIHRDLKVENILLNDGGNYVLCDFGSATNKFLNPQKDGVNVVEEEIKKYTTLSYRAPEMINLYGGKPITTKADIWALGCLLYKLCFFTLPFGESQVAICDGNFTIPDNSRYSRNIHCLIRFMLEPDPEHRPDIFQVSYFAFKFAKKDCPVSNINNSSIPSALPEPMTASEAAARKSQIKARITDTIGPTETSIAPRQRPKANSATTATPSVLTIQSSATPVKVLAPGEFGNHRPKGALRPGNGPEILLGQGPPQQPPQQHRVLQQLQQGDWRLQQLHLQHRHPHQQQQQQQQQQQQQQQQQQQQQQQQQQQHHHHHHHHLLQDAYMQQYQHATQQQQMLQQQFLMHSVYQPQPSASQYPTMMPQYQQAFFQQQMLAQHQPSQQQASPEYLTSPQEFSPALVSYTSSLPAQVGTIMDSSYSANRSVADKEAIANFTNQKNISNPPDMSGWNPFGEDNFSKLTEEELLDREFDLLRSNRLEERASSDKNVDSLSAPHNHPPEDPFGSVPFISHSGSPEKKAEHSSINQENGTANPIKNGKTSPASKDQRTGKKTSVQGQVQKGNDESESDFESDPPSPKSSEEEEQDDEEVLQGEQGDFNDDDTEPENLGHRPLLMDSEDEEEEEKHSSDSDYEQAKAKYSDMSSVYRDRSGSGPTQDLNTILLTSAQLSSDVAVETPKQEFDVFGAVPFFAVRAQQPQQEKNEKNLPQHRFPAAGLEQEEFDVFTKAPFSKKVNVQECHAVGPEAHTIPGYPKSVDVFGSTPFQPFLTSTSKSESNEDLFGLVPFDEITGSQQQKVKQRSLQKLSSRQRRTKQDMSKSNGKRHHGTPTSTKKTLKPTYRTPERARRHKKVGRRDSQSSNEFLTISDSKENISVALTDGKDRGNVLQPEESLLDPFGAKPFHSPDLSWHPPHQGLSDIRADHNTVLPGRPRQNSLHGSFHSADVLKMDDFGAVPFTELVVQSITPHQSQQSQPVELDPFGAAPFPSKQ
UniProt Q9BXH1: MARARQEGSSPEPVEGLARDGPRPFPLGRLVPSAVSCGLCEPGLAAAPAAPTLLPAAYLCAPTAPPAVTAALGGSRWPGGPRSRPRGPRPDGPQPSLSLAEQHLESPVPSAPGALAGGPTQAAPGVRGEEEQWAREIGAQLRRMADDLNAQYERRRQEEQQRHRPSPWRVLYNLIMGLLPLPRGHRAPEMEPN
UniProt Q9HB09: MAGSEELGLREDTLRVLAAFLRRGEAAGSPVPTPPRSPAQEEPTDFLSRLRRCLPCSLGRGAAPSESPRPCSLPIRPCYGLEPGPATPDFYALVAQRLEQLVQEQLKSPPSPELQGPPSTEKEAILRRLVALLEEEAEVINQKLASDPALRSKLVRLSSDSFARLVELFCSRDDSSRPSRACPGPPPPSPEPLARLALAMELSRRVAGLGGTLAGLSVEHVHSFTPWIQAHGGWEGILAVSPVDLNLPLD
UniProt Q13825: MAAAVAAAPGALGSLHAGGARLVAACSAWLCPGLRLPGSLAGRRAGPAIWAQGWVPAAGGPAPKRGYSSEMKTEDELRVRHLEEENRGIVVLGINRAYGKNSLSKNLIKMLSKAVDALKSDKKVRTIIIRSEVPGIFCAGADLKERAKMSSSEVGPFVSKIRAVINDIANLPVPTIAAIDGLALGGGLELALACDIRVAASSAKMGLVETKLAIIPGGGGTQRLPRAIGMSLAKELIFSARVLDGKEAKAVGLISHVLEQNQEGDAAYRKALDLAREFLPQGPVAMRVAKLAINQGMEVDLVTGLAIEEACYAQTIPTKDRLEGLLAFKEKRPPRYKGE
UniProt Q9NQS1: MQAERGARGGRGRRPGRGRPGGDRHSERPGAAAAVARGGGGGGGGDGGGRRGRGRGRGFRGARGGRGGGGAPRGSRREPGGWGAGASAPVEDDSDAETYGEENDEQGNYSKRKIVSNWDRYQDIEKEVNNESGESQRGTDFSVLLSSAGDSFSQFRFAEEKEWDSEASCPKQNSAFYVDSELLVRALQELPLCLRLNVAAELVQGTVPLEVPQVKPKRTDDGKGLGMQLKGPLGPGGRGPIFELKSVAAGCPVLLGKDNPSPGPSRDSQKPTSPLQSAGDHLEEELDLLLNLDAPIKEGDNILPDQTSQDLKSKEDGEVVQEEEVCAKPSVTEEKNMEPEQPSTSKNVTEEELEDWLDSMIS
UniProt Q9UHQ4: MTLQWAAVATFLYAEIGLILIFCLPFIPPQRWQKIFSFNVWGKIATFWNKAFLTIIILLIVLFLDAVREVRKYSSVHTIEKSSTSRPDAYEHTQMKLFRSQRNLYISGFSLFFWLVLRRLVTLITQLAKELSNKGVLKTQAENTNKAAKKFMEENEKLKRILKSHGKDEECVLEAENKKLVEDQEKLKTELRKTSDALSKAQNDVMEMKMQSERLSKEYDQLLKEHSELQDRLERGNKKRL
UniProt Q9BQE9, whole entry, looked up: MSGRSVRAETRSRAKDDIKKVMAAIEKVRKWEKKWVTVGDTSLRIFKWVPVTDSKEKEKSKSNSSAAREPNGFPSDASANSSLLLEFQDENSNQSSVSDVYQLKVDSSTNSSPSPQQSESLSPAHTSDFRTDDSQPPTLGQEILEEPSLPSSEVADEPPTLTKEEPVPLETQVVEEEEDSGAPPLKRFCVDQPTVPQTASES
UniProt P15056, whole entry, looked up: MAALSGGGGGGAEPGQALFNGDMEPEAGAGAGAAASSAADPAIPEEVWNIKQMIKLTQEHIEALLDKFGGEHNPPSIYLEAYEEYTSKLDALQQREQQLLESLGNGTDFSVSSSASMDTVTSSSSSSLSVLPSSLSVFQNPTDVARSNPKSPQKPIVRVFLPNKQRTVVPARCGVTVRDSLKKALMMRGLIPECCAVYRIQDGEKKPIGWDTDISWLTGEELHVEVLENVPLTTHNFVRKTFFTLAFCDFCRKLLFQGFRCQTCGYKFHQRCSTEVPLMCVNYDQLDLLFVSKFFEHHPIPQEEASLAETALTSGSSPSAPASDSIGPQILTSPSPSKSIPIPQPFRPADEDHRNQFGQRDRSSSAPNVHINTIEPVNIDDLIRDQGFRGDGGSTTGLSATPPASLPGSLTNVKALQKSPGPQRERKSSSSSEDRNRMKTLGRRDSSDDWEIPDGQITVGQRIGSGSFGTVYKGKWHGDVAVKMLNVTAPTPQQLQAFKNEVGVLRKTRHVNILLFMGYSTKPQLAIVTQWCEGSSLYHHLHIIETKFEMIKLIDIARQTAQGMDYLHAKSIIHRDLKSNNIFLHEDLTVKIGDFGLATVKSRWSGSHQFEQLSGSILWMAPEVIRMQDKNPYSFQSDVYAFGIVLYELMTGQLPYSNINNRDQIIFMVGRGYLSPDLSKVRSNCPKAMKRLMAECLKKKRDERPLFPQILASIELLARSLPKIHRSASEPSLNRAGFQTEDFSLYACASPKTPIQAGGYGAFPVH
UniProt Q9BUT1: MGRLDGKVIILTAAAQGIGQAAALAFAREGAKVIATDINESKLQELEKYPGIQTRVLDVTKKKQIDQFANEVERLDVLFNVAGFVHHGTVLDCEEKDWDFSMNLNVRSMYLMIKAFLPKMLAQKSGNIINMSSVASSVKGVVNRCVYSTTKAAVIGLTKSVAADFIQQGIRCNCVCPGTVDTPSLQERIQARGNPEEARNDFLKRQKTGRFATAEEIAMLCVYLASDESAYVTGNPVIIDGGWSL
UniProt Q96B45: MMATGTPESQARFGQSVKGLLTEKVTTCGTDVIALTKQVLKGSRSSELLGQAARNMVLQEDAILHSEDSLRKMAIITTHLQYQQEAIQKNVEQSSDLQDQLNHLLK
UniProt O60238, whole entry, looked up: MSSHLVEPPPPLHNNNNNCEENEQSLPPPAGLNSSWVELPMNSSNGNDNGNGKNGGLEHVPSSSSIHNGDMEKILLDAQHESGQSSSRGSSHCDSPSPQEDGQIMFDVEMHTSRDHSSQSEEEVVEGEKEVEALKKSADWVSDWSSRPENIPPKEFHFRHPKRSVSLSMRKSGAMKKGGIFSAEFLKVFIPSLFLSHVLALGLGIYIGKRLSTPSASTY
UniProt Q00973: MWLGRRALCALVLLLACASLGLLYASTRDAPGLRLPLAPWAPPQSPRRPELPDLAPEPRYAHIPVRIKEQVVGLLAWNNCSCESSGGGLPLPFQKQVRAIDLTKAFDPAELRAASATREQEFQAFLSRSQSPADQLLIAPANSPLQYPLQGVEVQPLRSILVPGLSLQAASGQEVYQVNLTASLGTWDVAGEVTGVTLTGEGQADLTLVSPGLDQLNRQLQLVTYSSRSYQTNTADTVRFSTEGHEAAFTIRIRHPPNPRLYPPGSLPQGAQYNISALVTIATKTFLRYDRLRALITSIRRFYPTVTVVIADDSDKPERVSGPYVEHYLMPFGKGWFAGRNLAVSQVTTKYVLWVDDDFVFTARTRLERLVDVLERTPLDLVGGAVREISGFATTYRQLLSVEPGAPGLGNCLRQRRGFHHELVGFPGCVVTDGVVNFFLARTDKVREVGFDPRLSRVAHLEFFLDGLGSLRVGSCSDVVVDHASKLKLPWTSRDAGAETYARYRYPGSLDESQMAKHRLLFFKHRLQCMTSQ
UniProt Q92560: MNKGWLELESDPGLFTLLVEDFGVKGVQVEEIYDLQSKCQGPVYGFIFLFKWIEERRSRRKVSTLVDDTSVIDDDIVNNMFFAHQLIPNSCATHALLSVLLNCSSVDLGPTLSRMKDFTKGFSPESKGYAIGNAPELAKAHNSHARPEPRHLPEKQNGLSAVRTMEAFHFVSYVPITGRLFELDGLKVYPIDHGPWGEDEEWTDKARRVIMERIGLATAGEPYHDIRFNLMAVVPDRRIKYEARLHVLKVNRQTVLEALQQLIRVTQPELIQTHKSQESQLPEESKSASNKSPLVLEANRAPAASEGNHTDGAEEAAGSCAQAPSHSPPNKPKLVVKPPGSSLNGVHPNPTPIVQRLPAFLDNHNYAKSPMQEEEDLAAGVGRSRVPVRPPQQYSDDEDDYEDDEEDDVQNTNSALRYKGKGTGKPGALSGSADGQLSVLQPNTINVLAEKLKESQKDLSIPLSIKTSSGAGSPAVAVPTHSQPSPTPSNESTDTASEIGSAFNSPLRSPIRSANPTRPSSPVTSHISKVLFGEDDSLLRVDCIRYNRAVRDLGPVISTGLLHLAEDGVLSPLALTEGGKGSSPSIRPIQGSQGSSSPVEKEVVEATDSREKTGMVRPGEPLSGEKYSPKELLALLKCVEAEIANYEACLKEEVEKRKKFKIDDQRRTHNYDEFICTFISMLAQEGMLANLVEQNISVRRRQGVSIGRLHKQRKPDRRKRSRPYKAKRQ
UniProt P25440, whole entry, looked up: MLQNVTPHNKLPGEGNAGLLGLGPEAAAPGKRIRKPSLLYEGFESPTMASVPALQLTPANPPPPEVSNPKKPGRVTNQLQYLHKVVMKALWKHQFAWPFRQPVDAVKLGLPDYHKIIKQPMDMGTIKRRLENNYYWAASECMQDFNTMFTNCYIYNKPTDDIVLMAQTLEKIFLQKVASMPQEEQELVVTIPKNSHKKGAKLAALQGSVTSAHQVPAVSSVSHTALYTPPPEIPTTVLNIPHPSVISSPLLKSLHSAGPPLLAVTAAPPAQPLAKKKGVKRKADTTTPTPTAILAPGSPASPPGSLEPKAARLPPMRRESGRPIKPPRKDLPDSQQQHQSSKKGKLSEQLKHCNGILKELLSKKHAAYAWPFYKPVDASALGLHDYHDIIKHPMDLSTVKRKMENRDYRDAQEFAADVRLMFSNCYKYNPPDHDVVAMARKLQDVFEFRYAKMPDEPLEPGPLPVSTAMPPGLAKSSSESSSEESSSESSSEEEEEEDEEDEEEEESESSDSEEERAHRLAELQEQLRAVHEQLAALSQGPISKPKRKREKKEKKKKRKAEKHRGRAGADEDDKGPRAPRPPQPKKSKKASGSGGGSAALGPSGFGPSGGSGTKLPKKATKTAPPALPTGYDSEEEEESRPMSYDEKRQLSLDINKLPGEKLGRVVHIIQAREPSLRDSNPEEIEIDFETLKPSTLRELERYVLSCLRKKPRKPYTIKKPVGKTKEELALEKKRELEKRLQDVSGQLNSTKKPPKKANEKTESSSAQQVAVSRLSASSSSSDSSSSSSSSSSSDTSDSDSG
UniProt Q92934: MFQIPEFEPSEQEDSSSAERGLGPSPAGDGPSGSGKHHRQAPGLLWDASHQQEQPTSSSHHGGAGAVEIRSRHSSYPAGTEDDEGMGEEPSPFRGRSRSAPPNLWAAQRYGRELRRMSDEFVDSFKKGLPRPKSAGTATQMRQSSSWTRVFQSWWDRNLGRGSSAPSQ

Legend:
Experiment in all cases: log2 fold change, soluble protein after heating vs DMSO (PISA); higher = thermal stabilisation; K562 cells, 10 uM, 30 min; active = over 0.2 and 3.5 SD of the protein, either way, in both replicates (recomputed)
[1] = compound: CN1CCN(CCOc2cc(OC3CCOCC3)c3c(Nc4c(Cl)ccc5c4OCO5)ncnc3c2)CC1 [saracatinib]
How it was run: (§1)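 For each measurement, 10 μM compound was applied for 30 min to K562 cells at 2×10^6 cells/mL. Aliquots were heated for 3 min across 48°C-58°C, pooled, and extracted in PBS with 0.5% NP-40 at 4°C; the supernatant after 21,000xg for 90 min was soluble protein. This was quantified by TMTpro 16plex LC-MS/MS with channel sums equalised, and thermal stability was reported relative to control samples from duplicates, on a log2 fold-change scale.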

[2] = compound: CN1CCN(c2nc(C3=C(c4c[nH]c5ccccc45)C(=O)NC3=O)c3ccccc3n2)CC1 [sotrastaurin]
How it was run: as §1

[3] = compound: CN1CCc2c(c3ccccc3n2Cc2ccc(C(=O)NO)cc2)C1 [Tubastatin A]
How it was run: as §1

[4] = compound: CNC(=O)C1=CC=CC=C1NC2=NC(=NC=C2Cl)NC3=C(C=C(C=C3)N4CCOCC4)OC
How it was run: as §1

[5] = compound: CNC(=O)c1ccc(Nc2ncc(C(F)(F)F)c(NCc3nccnc3N(C)S(C)(=O)=O)n2)cc1 [defactinib]
How it was run: as §1

[6] = compound: CNCc1ccc(-c2[nH]c3cc(F)cc4c3c2CCNC4=O)cc1 [rucaparib]
How it was run: as §1

[7] = compound: CNc1nc(-c2ccc3c(N)n[nH]c3c2)cc(N2C[C@@H](C(=O)NC3CCCCC3)CC[C@H]2C)n1
How it was run: as §1

[8] = compound: COC(=O)N[C@@H](C)CNc1nccc(-c2cn(C(C)C)nc2-c2cc(Cl)cc(NS(C)(=O)=O)c2F)n1 [encorafenib]
How it was run: as §1

[9] = compound: COC(=O)[C@H](CCSC)NC(=O)C1=C(C=C(C=C1)NC[C@H](CS)N)C2=CC=CC=C2
How it was run: as §1

[10] = compound: COC1=CC=C(C=C1)CN2C=CC3=C2C=C(C=C3)C(=O)NO
How it was run: as §1

[11] = compound: CON(C)C(=O)N1N=C(c2cc(F)ccc2F)S[C@@]1(CCCN)c1ccccc1 [filanesib]
How it was run: as §1

[12] = compound: CO[C@H]1C[C@@H]2CC[C@@H](C)[C@@](O)(O2)C(=O)C(=O)N2CCCC[C@H]2C(=O)O[C@H]([C@H](C)C[C@@H]2CC[C@H](n3cnnn3)[C@H](OC)C2)CC(=O)[C@H](C)/C=C(\C)[C@@H](O)[C@@H](OC)C(=O)[C@H](C)C[C@H](C)/C=C/C=C/C=C/1C [zotarolimus]
How it was run: as §1

[13] = compound: COc1cc(C(=O)O)ccc1NC(=O)[C@@H]1N[C@@H](CC(C)(C)C)[C@](C#N)(c2ccc(Cl)cc2F)[C@H]1c1cccc(Cl)c1F [idasanutlin]
How it was run: as §1

[14] = compound: COc1cc(Nc2ncc3c(n2)-c2ccc(Cl)cc2C(c2c(F)cccc2OC)=NC3)ccc1C(=O)O [alisertib]
How it was run: as §1

[15] = compound: COc1cc2nc(-c3cc(F)ccc3O)nc(N[C@@H]3CNC[C@H]3C(C)(C)O)c2cc1OC
How it was run: as §1

[16] = compound: COc1cc2ncnc(Nc3ccc(F)c(Cl)c3)c2cc1OCCCN1CCOCC1 [gefitinib]
How it was run: as §1

[17] = compound: COc1cccc2cc(-c3nc([C@H]4CC[C@H](C(=O)O)CC4)n4ncnc(N)c34)[nH]c12
How it was run: as §1

[18] = compound: CS(=O)(=O)CCNCc1ccc(-c2ccc3ncnc(Nc4ccc(OCc5cccc(F)c5)c(Cl)c4)c3c2)o1 [lapatinib]
How it was run: as §1

[19] = compound: CS(=O)(=O)N1CCN(Cc2cc3nc(-c4cccc5[nH]ncc45)nc(N4CCOCC4)c3s2)CC1 [pictilisib]
How it was run: as §1

[20] = compound: CN1CC[C@H](c2c(O)cc(O)c3c(=O)cc(-c4ccccc4Cl)oc23)[C@H](O)C1 [alvocidib]
How it was run: as §1

Measured: log2 fold change

BMP2K (UniProt Q9NSY1)
inactive: [1] 0.071 | [2] 0.023 | [3] 0.015 | [4] 0.183 | [5] 0.179 | [6] 0.064 | [7] -0.029 | [8] -0.069 | [9] -0.012 | [10] 0.032 | [11] -0.019 | [12] 0.029 | [13] -0.092 | [14] 0 | [15] 0.055 | [16] 0.024 | [17] 0.111 | [18] 0.01 | [19] 0.102

BBC3 (UniProt Q9BXH1)
inactive: [1] 0.005 | [20] -0.04 | [3] 0.001 | [4] -0.077 | [5] -0.024 | [6] -0.028 | [7] -0.084 | [8] -0.136 | [9] -0.055 | [10] -0.057 | [12] 0.03 | [13] 0.016 | [14] -0.015 | [15] -0.066 | [16] -0.012 | [17] 0.118 | [18] 0.011 | [19] 0.046

BRD4 (UniProt O60885)
inactive: [1] 0.047 | [2] -0.149 | [3] -0.156 | [4] 0.065 | [5] -0.051 | [6] -0.073 | [7] 0.204 | [8] 0.01 | [9] -0.002 | [11] -0.068 | [12] -0.253 | [13] -0.001 | [14] -0.064 | [15] 0.078 | [16] 0.152 | [17] -0.003 | [18] -0.039 | [19] 0.161

AURKB isoform 5 (UniProt Q96GD4)
inactive: [1] -0.148 | [3] -0.117 | [5] 0.824 | [6] 0.418 | [7] 0.396 | [8] 0.225 | [9] 0.006 | [13] 0.184 | [16] -0.025

BCL2L12 (UniProt Q9HB09)
inactive: [1] 0.055 | [20] -0.168 | [4] 0.013 | [5] -0.002 | [6] -0.008 | [7] -0.045 | [8] 0.104 | [9] 0.066 | [12] 0 | [13] -0.15 | [14] -0.003 | [15] -0.104 | [16] 0.017 | [17] 0.044 | [18] 0.019 | [19] 0.004

AUH (UniProt Q13825)
inactive: [1] 0.184 | [3] 0.152 | [4] 0.003 | [5] -0.055 | [6] 0.065 | [7] -0.062 | [8] -0.005 | [9] 0.006 | [10] -0.107 | [12] 0.009 | [13] -0.074 | [14] 0.175 | [15] -0.036 | [17] 0.034 | [18] 0.056 | [19] -0.071

BPTF (UniProt Q12830)
inactive: [1] -0.152 | [2] 0.085 | [4] 0.23 | [7] -0.27 | [10] -0.112 | [11] -0.01 | [16] -0.178

AVEN (UniProt Q9NQS1)
inactive: [1] 0.016 | [20] 0.137 | [4] -0.088 | [5] -0.037 | [6] -0.002 | [7] -0.055 | [8] -0.175 | [9] 0.054 | [12] -0.07 | [15] 0.16 | [18] 0.035 | [19] 0.031

BCAS3 isoform 8 (UniProt Q9H6U6)
inactive: [1] 0.052 | [20] 0.016 | [3] -0.136 | [4] -0.001 | [6] 0.038 | [7] 0.073 | [8] -0.148 | [10] -0.051 | [12] 0.144 | [13] -0.006 | [15] 0.089 | [18] -0.039 | [19] -0.014

BCAP29 isoform 2 (UniProt Q9UHQ4)
inactive: [1] 0.052 | [2] 0.104 | [3] -0.052 | [4] 0.002 | [5] 0.033 | [6] -0.043 | [7] -0.016 | [8] -0.026 | [9] 0.018 | [10] -0.033 | [11] -0.047 | [12] -0.022 | [13] 0.027 | [14] -0.023 | [15] -0.1 | [16] 0.035 | [17] 0.035 | [18] -0.009 | [19] -0.027

Reprinted from above (2 entries):
BCAS3 isoform 8 (UniProt Q9H6U6)
inactive: [1] 0.052 | [20] 0.016 | [3] -0.136 | [4] -0.001 | [6] 0.038 | [7] 0.073 | [8] -0.148 | [10] -0.051 | [12] 0.144 | [13] -0.006 | [15] 0.089 | [18] -0.039 | [19] -0.014

BCAP29 isoform 2 (UniProt Q9UHQ4)
inactive: [1] 0.052 | [2] 0.104 | [3] -0.052 | [4] 0.002 | [5] 0.033 | [6] -0.043 | [7] -0.016 | [8] -0.026 | [9] 0.018 | [10] -0.033 | [11] -0.047 | [12] -0.022 | [13] 0.027 | [14] -0.023 | [15] -0.1 | [16] 0.035 | [17] 0.035 | [18] -0.009 | [19] -0.027

Going on with the list:

BCL7B (UniProt Q9BQE9)
inactive: [1] 0.012 | [20] 0.209 | [5] -0.047 | [7] 0.139 | [9] 0.209 | [10] 0.112 | [12] 0.047 | [14] -0.141 | [17] 0.134

BRD8 isoform 2 (UniProt Q9H0E9)
inactive: [1] -0.06 | [2] 0.058 | [3] -0.296 | [4] 0 | [5] -0.064 | [6] -0.015 | [7] -0.021 | [8] 0.028 | [9] 0.145 | [10] -0.201 | [11] 0.042 | [12] 0.027 | [13] -0.027 | [15] -0.113 | [18] 0.019 | [19] 0.06

BRAF (UniProt P15056)
inactive: [1] 0.029 | [2] -0.069 | [3] 0.007 | [4] -0.02 | [5] -0.058 | [6] 0.013 | [7] -0.059 | [8] 0.014 | [9] -0.037 | [10] -0.031 | [11] -0.05 | [12] -0.004 | [13] -0.047 | [14] 0.007 | [15] -0.076 | [16] 0.012 | [17] 0.015 | [19] -0.061

BDH2 (UniProt Q9BUT1)
inactive: [1] -0.088 | [2] 0 | [4] -0.061 | [5] -0.021 | [7] 0.015 | [9] -0.039 | [10] 0.022 | [11] -0.007 | [12] 0.098 | [13] -0.039 | [14] 0.071 | [15] 0.065 | [17] -0.001 | [18] 0.012 | [19] 0.007

BORCS7 (UniProt Q96B45)
inactive: [1] 0.164 | [20] -0.007 | [3] -0.114 | [4] -0.001 | [5] 0.015 | [6] -0.006 | [7] -0.064 | [8] -0.045 | [9] -0.095 | [10] 0.068 | [12] 0.116 | [13] -0.028 | [14] -0.053 | [15] 0.008 | [16] 0.067 | [17] 0.03 | [18] 0 | [19] 0.132

BNIP3L (UniProt O60238)
inactive: [1] 0.106 | [20] 0.085 | [3] 0.152 | [4] 0.002 | [5] -0.141 | [6] -0.102 | [7] -0.075 | [8] 0.107 | [9] 0.25 | [10] -0.317 | [12] -0.012 | [14] -0.099 | [16] 0.157 | [17] 0.102

B4GALNT1 (UniProt Q00973)
inactive: [1] -0.143 | [2] -0.07 | [3] -0.057 | [4] -0.021 | [5] -0.182 | [6] 0.017 | [7] 0.025 | [8] 0.144 | [9] -0.425 | [10] 0.023 | [11] 0.092 | [12] 0.081 | [13] 0.093 | [14] -0.063 | [15] -0.045 | [16] 0.119 | [17] 0.112 | [18] 0.097 | [19] -0.045

BRIP1 (UniProt Q9BX63)
inactive: [1] -0.034 | [2] -0.016 | [3] -0.089 | [4] 0.001 | [5] 0.083 | [6] -0.068 | [7] -0.088 | [8] -0.003 | [9] 0.018 | [10] 0.072 | [11] 0.098 | [12] 0.061 | [13] -0.14 | [15] 0.126 | [16] 0.047 | [18] 0.003 | [19] 0.067

BAP1 (UniProt Q92560)
inactive: [1] -0.091 | [2] 0.089 | [3] 0.042 | [4] -0.1 | [5] 0.09 | [6] 0.037 | [7] 0.061 | [8] 0.014 | [9] -0.017 | [10] 0.032 | [11] 0.111 | [12] 0.046 | [13] 0.164 | [14] -0.112 | [15] -0.006 | [16] -0.055 | [17] -0.024 | [18] 0.119 | [19] 0.062

BRD2 isoform 2 (UniProt P25440)
inactive: [1] 0 | [2] -0.172 | [3] -0.37 | [4] 0.146 | [5] -0.125 | [7] 0.255 | [9] -0.074 | [10] -0.174 | [11] -0.11 | [12] -0.361 | [13] 0.072 | [15] 0.214 | [18] 0.005 | [19] 0.016

BAD (UniProt Q92934)
inactive: [1] 0.021 | [2] 0.273 | [4] -0.032 | [5] 0.03 | [6] 0.032 | [7] -0.016 | [8] -0.047 | [9] -0.004 | [10] -0.103 | [11] 0.124 | [12] -0.073 | [13] -0.049 | [14] 0.103 | [15] -0.016 | [16] 0.115 | [17] 0.068 | [18] -0.037 | [19] 0.022
